Reference: paper PMC4336944
Where two headings read alike, the source gives them in different places. No constants are given. Whether binding was seen depends on the method and setting. Binding seen in cells or lysates may run through a third protein. A yes stands for co-enrichment or nearness to the bait. Other partners may have been found. For some of these results: A no says only that the protein was not detected with the bait. For some of these results: Sequences can lack the tags named with a protein. One block for each molecule: values may come before it.

Chains of the proteins cited; added tags and fusions are not shown.
UniProt P05412: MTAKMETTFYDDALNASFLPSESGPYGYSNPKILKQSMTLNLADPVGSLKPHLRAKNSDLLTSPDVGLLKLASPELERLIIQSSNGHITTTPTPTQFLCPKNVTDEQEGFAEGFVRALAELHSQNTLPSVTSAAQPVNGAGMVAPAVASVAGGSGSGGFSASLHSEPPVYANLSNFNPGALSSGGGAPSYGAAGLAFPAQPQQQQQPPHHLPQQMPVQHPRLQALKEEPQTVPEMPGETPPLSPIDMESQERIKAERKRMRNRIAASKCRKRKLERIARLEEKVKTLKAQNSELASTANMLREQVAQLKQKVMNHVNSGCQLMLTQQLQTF
UniProt Q12923: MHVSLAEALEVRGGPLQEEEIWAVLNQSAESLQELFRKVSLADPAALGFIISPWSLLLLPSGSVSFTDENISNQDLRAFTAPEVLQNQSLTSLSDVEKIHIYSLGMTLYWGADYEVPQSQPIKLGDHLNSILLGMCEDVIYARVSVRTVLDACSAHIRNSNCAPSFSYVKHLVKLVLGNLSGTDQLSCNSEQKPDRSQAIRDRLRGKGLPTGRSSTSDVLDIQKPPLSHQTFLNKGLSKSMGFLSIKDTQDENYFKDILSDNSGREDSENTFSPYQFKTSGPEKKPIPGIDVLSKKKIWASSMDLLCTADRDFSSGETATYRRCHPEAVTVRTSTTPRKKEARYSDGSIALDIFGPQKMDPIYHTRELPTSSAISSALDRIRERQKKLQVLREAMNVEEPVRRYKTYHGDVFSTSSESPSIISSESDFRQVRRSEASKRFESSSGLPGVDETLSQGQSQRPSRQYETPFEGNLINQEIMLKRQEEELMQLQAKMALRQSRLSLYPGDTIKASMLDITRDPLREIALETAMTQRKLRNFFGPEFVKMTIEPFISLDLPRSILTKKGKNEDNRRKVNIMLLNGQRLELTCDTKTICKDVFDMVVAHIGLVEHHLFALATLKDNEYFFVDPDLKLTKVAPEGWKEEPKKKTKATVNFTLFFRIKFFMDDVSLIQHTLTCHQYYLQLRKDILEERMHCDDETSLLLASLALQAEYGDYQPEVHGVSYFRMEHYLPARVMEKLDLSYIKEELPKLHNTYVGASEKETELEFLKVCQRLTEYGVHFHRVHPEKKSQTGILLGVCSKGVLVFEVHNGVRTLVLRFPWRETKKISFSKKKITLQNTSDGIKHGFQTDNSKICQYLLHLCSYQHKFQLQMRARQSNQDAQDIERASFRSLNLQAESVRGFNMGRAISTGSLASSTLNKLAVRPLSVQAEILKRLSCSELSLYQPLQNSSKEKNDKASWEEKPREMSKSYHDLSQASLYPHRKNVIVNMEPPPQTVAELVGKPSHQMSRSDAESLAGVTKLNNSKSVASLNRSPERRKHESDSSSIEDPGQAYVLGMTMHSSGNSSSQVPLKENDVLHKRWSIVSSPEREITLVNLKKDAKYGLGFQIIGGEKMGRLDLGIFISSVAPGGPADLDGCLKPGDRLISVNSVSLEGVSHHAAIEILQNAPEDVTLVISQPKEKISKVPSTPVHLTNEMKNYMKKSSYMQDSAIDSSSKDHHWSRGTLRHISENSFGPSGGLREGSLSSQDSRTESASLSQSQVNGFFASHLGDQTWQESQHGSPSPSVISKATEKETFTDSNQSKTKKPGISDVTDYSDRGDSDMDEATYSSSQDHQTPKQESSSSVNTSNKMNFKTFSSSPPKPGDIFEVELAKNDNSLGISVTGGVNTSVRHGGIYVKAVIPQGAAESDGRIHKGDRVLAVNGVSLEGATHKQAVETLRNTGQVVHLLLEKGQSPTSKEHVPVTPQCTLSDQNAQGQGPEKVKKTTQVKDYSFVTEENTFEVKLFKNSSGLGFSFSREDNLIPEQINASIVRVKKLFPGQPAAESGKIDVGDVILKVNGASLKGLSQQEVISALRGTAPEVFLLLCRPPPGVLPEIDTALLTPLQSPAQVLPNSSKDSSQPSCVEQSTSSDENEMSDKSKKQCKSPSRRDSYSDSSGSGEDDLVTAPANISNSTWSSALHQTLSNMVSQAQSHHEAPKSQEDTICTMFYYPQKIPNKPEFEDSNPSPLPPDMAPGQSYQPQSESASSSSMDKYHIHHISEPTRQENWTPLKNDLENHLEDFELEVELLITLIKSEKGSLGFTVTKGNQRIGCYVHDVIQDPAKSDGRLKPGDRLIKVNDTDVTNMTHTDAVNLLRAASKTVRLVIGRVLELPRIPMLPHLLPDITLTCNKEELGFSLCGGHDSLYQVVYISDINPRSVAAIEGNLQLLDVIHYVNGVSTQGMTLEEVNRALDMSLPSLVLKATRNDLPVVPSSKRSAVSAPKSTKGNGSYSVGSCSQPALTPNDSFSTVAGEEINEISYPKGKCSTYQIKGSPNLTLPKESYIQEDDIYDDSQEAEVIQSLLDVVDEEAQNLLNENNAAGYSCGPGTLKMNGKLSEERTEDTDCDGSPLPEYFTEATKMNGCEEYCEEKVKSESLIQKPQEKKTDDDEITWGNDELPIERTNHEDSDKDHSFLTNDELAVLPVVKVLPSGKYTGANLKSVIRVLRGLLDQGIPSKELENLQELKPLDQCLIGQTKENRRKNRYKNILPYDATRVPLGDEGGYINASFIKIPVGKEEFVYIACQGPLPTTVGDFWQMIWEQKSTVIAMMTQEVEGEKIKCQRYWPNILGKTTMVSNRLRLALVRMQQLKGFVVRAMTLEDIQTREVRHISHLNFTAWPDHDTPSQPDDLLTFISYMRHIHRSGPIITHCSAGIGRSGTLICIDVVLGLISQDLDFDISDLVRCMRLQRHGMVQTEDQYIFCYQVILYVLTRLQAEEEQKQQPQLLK
UniProt P19838: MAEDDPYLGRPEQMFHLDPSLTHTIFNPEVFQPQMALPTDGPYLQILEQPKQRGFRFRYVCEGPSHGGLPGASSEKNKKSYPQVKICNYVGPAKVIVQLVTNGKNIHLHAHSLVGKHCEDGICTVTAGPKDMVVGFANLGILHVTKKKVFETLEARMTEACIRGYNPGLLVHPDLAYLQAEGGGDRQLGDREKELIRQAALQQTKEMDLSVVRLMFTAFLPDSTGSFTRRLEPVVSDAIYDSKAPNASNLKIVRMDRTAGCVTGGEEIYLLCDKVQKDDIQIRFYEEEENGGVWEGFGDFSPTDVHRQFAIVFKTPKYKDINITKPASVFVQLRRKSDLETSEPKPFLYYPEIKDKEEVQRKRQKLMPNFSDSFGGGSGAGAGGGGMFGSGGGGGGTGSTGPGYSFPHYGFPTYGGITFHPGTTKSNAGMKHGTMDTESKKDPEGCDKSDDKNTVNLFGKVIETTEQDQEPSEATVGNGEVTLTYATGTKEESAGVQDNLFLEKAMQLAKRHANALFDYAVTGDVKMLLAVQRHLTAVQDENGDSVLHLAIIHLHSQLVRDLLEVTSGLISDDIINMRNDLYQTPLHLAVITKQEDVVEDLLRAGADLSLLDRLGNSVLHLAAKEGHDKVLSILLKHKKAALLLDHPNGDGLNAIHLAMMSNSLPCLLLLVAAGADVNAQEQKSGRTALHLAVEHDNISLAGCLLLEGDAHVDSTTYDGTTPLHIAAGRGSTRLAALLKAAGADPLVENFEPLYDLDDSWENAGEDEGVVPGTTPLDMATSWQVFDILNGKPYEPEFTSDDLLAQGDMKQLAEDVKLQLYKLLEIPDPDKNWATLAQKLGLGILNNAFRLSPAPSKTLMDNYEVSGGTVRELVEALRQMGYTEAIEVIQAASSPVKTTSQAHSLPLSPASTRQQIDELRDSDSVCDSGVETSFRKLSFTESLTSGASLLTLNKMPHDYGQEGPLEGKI
UniProt Q9UDY2: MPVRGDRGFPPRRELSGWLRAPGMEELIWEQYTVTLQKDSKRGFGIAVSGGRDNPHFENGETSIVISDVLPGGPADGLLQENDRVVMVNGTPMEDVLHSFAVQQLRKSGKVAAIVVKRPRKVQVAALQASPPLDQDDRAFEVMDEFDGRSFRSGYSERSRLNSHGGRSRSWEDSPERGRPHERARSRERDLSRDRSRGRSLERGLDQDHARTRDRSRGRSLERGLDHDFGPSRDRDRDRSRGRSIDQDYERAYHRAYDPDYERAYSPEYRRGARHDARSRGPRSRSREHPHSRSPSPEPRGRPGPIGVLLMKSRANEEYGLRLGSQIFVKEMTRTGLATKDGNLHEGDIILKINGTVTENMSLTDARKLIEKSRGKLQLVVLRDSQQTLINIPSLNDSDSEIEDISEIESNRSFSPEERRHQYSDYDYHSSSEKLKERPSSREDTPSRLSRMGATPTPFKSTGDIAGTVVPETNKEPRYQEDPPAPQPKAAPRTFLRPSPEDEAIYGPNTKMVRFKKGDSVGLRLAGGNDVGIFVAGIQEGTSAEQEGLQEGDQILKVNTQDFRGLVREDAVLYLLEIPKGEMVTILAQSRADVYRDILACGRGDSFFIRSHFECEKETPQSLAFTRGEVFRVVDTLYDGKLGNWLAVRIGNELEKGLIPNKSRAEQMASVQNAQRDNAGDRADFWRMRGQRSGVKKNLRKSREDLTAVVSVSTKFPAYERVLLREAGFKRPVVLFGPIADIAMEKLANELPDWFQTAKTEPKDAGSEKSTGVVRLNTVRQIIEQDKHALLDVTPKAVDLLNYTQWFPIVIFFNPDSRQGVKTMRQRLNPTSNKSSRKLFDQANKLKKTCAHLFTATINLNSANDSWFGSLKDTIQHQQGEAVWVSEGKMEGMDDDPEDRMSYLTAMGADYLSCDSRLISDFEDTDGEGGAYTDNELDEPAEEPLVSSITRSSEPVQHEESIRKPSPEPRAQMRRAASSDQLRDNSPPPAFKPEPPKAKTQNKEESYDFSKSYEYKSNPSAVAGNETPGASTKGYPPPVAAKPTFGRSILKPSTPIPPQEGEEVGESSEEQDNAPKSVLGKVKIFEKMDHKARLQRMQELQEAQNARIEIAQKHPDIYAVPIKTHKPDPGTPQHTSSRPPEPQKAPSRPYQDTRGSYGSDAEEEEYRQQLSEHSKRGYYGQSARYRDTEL

Columns and labels:
[1] = molecular target: T1, Halo-TNIP2 stably expressed under the control of the CMVd2 promoter (human) (UniProt Q8NFZ5); assay: affinity purification with mass spectrometry; Halo-TNIP2 stably expressed in Flp-In-293 cells under the CMVd2 promoter at close to endogenous levels; Magne HaloTag beads, TEV elution, MudPIT; control: HEK293T cells
T1 sequence: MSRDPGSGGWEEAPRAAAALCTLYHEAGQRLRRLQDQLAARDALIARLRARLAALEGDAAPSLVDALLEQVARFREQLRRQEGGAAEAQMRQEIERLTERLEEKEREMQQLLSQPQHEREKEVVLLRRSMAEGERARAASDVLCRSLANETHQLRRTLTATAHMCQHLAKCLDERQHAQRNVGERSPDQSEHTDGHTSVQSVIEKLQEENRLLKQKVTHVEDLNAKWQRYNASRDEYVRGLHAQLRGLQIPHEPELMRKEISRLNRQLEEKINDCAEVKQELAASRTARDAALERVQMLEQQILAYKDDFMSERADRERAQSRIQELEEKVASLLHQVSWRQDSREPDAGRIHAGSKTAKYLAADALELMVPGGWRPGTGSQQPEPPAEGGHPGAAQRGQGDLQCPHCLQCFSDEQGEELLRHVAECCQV

[2] = molecular target: T2, Flexi-cloned Halo-TNIP2 (with the C-terminal valine cloning scar), transiently expressed from the CMV promoter (human) (UniProt Q8NFZ5); assay: affinity purification with mass spectrometry; Halo-tagged bait transiently transfected in HEK293T; whole cell extract on Magne HaloTag magnetic beads 1 h at 4°, washed in Tris pH 7.4, 137 mM NaCl, 0.05% Nonidet P40, eluted with AcTEV protease; MudPIT; control: Halo tag alone
T2 sequence: T1 sequence

[3] = molecular target: T3, Halo-TNIP2 253-429 (with the cloning scar valine) (human) (UniProt Q8NFZ5); assay: as above
T3 sequence: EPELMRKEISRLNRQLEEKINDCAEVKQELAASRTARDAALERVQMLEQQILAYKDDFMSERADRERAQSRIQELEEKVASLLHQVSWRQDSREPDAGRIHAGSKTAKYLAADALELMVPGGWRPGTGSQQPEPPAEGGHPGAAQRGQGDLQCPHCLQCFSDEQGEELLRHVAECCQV

[4] = molecular target: T4, TNIP2-Halo (full length TNIP2 with the Halo tag at the C-terminus) (human) (UniProt Q8NFZ5); assay: as above
T4 sequence: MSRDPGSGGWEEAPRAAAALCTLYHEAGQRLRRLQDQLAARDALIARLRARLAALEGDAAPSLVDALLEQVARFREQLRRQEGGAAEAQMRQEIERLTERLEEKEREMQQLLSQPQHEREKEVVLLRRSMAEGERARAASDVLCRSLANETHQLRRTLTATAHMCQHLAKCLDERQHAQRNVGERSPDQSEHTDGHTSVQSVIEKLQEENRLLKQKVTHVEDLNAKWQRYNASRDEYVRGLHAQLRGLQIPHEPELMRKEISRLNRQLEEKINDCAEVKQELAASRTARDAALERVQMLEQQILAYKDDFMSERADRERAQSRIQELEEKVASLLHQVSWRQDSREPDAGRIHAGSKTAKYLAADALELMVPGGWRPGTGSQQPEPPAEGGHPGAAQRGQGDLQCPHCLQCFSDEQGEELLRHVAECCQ

[5] = molecular target: T5, Halo-TNIP2 without the C-terminal valine (human) (UniProt Q8NFZ5); assay: as above
T5 sequence: T4 sequence

[6] = molecular target: Halo-JUN lacking the C-terminal valine cloning scar (human) (UniProt P05412); assay: as above
[7] = molecular target: T6, Halo-TNIP2 253-429 no valine (human) (UniProt Q8NFZ5); assay: as above
T6 sequence: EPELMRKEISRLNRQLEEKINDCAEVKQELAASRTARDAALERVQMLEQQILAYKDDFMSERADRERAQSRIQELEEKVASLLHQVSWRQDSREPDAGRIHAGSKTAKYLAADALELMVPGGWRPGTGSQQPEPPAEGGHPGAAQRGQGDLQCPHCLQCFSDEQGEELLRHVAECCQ

Halo-PTPN13 = Halo-PTPN13 (UniProt Q12923); assay: as above
[8] = molecular target: Halo-JUN lacking the C-terminal valine cloning scar (human) (UniProt P05412); assay: as above; remark: listed apart in the source

binding [1]: binds
binding [2]: binds
Molecule: NFKB1, endogenous (from UniProt P19838 1-968)

binding [1]: binds
binding [3]: binds
binding [4]: no binding
binding [5]: no binding
binding [2]: binds
Molecule: PTPN13, endogenous (from UniProt Q12923 1-2485)

binding [6]: no binding
Molecule: TJP2, endogenous (from UniProt Q9UDY2 1-1190)

binding [6]: no binding
Molecule: tight junction protein TJP1, endogenous (two isoforms) (from UniProt Q07157 1-1748)

binding [7]: no binding
binding (Halo-PTPN13): binds
B1: STXBP4, endogenous (protein, UniProt Q6ZWJ1 1-553)
chain: MNKNTSTVVSPSLLEKDPAFQMITIAKETGLGLKVLGGINRNEGPLVYIQEIIPGGDCYKDGRLKPGDQLVSVNKESMIGVSFEEAKSIITGAKLRLESAWEIAFIRQKSDNIQPENLSCTSLIEASGEYGPQASTLSLFSSPPEILIPKTSSTPKTNNDILSSCEIKTGYNKTVQIPITSENSTVGLSNTDVASAWTENYGLQEKISLNPSVRFKAEKLEMALNYLGIQPTKEQHQALRQQVQADSKGTVSFGDFVQVARNLFCLQLDEVNVGAHEISNILDSQLLPCDSSEADEMERLKCERDDALKEVNTLKEKLLESDKQRKQLTEELQNVKQEAKAVVEETRALRSRIHLAEAAQRQAHGMEMDYEEVIRLLEAKITELKAQLADYSDQNKESVQDLKKRIMVLDCQLRKSEMARKTFEASTEKLLHFVEAIQEVFSDNSTPLSNLSERRAVLASQTSLTPLGRNGRSIPATLALESKELVKSVRALLDMDCLPYGWEEAYTADGIKYFINHVTQTTSWIHPVMSVLNLSRSEENEEDCSRELPNQKS

binding [8]: no binding
B2: MPP7, endogenous (protein, UniProt Q5T2T1 1-576)
chain: MPALSTGSGSDTGLYELLAALPAQLQPHVDSQEDLTFLWDMFGEKSLHSLVKIHEKLHYYEKQSPVPILHGAAALADDLAEELQNKPLNSEIRELLKLLSKPNVKALLSVHDTVAQKNYDPVLPPMPEDIDDEEDSVKIIRLVKNREPLGATIKKDEQTGAIIVARIMRGGAADRSGLIHVGDELREVNGIPVEDKRPEEIIQILAQSQGAITFKIIPGSKEETPSKEGKMFIKALFDYNPNEDKAIPCKEAGLSFKKGDILQIMSQDDATWWQAKHEADANPRAGLIPSKHFQERRLALRRPEILVQPLKVSNRKSSGFRKSFRLSRKDKKTNKSMYECKKSDQYDTADVPTYEEVTPYRRQTNEKYRLVVLVGPVGVGLNELKRKLLISDTQHYGVTVPHTTRARRSQESDGVEYIFISKHLFETDVQNNKFIEYGEYKNNYYGTSIDSVRSVLAKNKVCLLDVQPHTVKHLRTLEFKPYVIFIKPPSIERLRETRKNAKIISSRDDQGAAKPFTEEDFQEMIKSAQIMESQYGHLFDKIIINDDLTVAFNELKTTFDKLETETHWVPVSWLHS

binding [8]: no binding
B3: LIN7C, endogenous (protein, UniProt Q9NUP9 1-197)
chain: MAALGEPVRLERDICRAIELLEKLQRSGEVPPQKLQALQRVLQSEFCNAVREVYEHVYETVDISSSPEVRANATAKATVAAFAASEGHSHPRVVELPKTEEGLGFNIMGGKEQNSPIYISRIIPGGIADRHGGLKRGDQLLSVNGVSVEGEHHEKAVELLKAAQGKVKLVVRYTPKVLEEMESRFEKMRSAKRRQQT
